# Cleaved PARP in drug-treated melanoma cells

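The test systems are human melanoma cell lines, treated with a pair of drugs for 72 h and then stained and imaged. Each value is the cleaved-PARP-positive fraction of nuclei relative to DMSO-treated wells, in %, so that 100 equals the control and higher values mean more apoptosis. Concentrations were fixed for each drug; these are the higher of two levels. These are primary screening values without error estimates. Basal and induced levels differ widely between cell lines.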
Only some of the drugs and lines screened are listed, without regard to their results.

All values are for the listed drug together with SNS-314 (4 nM): O=C(Nc1cccc(Cl)c1)Nc1ncc(CCNc2ncnc3ccsc23)s1

| # | Second drug | COLO 829 | MEL-HO | RVH-421 | WM3619 | WM115 | WM451Lu | WM1716 | SK-MEL-28 |
|---|---|---|---|---|---|---|---|---|---|
| 1 | O=C(O)c1ccc2c(c1)nc(Nc1cccc(Cl)c1)c1ccncc12 at 2000 nM | 119 | 315 | 283 | 384 | 269 | 219 | 483 | 99.4 |
| 2 | O=C(O)C(=O)Nc1sc2c(c1C(=O)O)CCNC2 at 8330 nM | 178 | 58.5 | 223 | 110 | 418 | 206 | 40.6 | 324 |
| 3 | CCCCCCCCCCCCCCCCCCOP(=O)([O-])OC1CC[N+](C)(C)CC1 at 2000 nM | 128 | 44.4 | 108 | 139 | 447 | 335 | 260 | 82.6 |
| 4 | Cn1c(=O)n(-c2ccc(C(C)(C)C#N)cc2)c2c3cc(-c4cnc5ccccc5c4)ccc3ncc21 at 20 nM | 222 | 68.6 | 41.2 | 149 | 215 | 310 | 214 | 243 |
| 5 | Cc1cc(N2CCOCC2)cc2[nH]c(-c3c(NC[C@@H](O)c4cccc(Cl)c4)cc[nH]c3=O)nc12 at 1000 nM | 145 | 132 | 40.2 | 106 | 302 | 71.9 | 200 | 72.6 |
| 6 | CN(C)S(=O)(=O)c1ccc2c(c1)/C(=C/c1cc3c([nH]1)CCCC3)C(=O)N2 at 2000 nM | 186 | 95.3 | 63.0 | 99.8 | 208 | 128 | 31.0 | 163 |
| 7 | CC1(C)NC(=O)N(c2ccc([N+](=O)[O-])c(C(F)(F)F)c2)C1=O at 5000 nM | 109 | 56.8 | 173 | 129 | 343 | 186 | 183 | 258 |
| 8 | CC(C)C[C@H](NC(=O)[C@H](Cc1ccccc1)NC(=O)c1cnccn1)B(O)O at 5 nM | 4940 | 110 | 1860 | 3680 | 651 | 770 | 14200 | 695 |
| 9 | OCCn1cc(-c2cnc3nnn(Cc4ccc5ncccc5c4)c3n2)cn1 at 5000 nM | 97.9 | 93.9 | 87.9 | 132 | 285 | 139 | 177 | 91.9 |
| 10 | C[C@@H](N)c1ccc(C(=O)Nc2ccnc3[nH]ccc23)cc1 at 2000 nM | 118 | 112 | 167 | 120 | 294 | 331 | 294 | 467 |
| 11 | Cc1cc([N+](=O)[O-])ccc1NS(=O)(=O)c1cc(Cl)ccc1Cl at 5000 nM | 190 | 386 | 180 | 145 | 250 | 157 | 73.2 | 119 |
| 12 | Cn1c(Nc2ccc(C(F)(F)F)cc2)nc2cc(Oc3ccnc(-c4ncc(C(F)(F)F)[nH]4)c3)ccc21 at 400 nM | 184 | 121 | 177 | 174 | 407 | 468 | 166 | 273 |
| 13 | N.N.[Cl][Pt][Cl] at 8000 nM | 98.6 | 75.0 | 61.8 | 147 | 86.8 | 326 | 164 | 156 |
| 14 | Cc1cc(Nc2cc(N3CCN(C)CC3)nc(Sc3ccc(NC(=O)C4CC4)cc3)n2)n[nH]1 at 30 nM | 90.3 | 117 | 145 | 146 | 286 | 236 | 135 | 111 |
| 15 | CO[C@H]1C[C@@H]2CC[C@@H](C)[C@@](O)(O2)C(=O)C(=O)N2CCCC[C@H]2C(=O)O[C@H]([C@H](C)C[C@@H]2CC[C@@H](OCCO)[C@H](OC)C2)CC(=O)[C@H](C)/C=C(\C)[C@@H](O)[C@@H](OC)C(=O)[C@H](C)C[C@H](C)/C=C/C=C/C=C/1C at 100 nM | 357 | 101 | 59.0 | 253 | 1560 | 107 | 54.2 | 158 |
| 16 | Oc1cc(-c2nc(-c3ccccc3)[nH]c2-c2ccncc2)ccc1Cl at 1000 nM | 222 | 133 | 87.3 | 141 | 741 | 487 | 48.6 | 238 |
| 17 | O=C(Nc1cc(C(F)(F)F)cc(C(F)(F)F)c1)c1cc(Cl)ccc1O at 80 nM | 58.2 | 109 | 90.2 | 96.1 | 98.8 | 177 | 112 | 138 |
| 18 | COc1cc2ncnc(Nc3ccc(Oc4ccccc4)cc3)c2cc1OC at 10000 nM | 127 | 140 | 152 | 125 | 200 | 288 | 162 | 270 |
| 19 | O=C(Nc1ccccc1)c1cc([N+](=O)[O-])ccc1Cl at 10000 nM | 200 | 272 | 146 | 242 | 720 | 121 | 74.9 | 321 |
| 20 | Cc1nc(Nc2ncc(C(=O)Nc3c(C)cccc3Cl)s2)cc(N2CCN(CCO)CC2)n1 at 20 nM | 370 | 226 | 209 | 120 | 782 | 151 | 288 | 386 |
| 21 | CN(c1ncccc1CNc1nc(Nc2ccc3c(c2)CC(=O)N3)ncc1C(F)(F)F)S(C)(=O)=O at 400 nM | 286 | 47.1 | 113 | 145 | 697 | 393 | 190 | 334 |
| 22 | COc1cc([C@@H]2c3cc4c(cc3[C@@H](O[C@@H]3O[C@@H]5CO[C@@H](C)O[C@H]5[C@H](O)[C@H]3O)[C@H]3COC(=O)[C@H]23)OCO4)cc(OC)c1O at 100 nM | 77.3 | 64.0 | 50.2 | 127 | 340 | 486 | 23.6 | 182 |
| 23 | O=C(CCCCCCC(=O)Nc1ccccc1)NO at 400 nM | 266 | 48.3 | 137 | 145 | 375 | 80.0 | 234 | 115 |
| 24 | Oc1nc(-c2ccc(C(F)(F)F)cc2)nc2c1CSCC2 at 10000 nM | 82.7 | 129 | 116 | 153 | 151 | 124 | 146 | 74.9 |
| 25 | Cn1cc(/C=C2\C(=O)Nc3cccnc32)c2ccccc21 at 2000 nM | 86.5 | 31.1 | 204 | 185 | 152 | 102 | 13.6 | 78.1 |
| 26 | O=c1[nH]nc(Sc2ncc([N+](=O)[O-])s2)n1-c1ccc2c(c1)OCCO2 at 1000 nM | 100 | 252 | 32.4 | 106 | 312 | 216 | 54.7 | 476 |
| 27 | CC[C@]1(O)C[C@H]2CN(CCc3c([nH]c4ccccc34)[C@@](C(=O)OC)(c3cc4c(cc3OC)N(C=O)[C@H]3[C@@](O)(C(=O)OC)[C@H](OC(C)=O)[C@]5(CC)C=CCN6CC[C@]43[C@@H]65)C2)C1 at 0.5 nM | 124 | 90.5 | 37.6 | 178 | 520 | 573 | 565 | 191 |
| 28 | COCC[n+]1c2c(n(Cc3cnccn3)c1C)C(=O)c1ccccc1C2=O at 2 nM | 145 | 115 | 34.4 | 137 | 282 | 432 | 730 | 917 |
| 29 | COc1ccc(C2=N[C@@H](c3ccc(Cl)cc3)[C@@H](c3ccc(Cl)cc3)N2C(=O)N2CCNC(=O)C2)c(OC(C)C)c1 at 500 nM | 33.2 | 167 | 213 | 119 | 120 | 178 | 177 | 86.8 |
| 30 | NC1(c2ccc(-c3nc4ccn5c(=O)[nH]nc5c4cc3-c3ccccc3)cc2)CCC1 at 2000 nM | 32.0 | 104 | 110 | 102 | 268 | 76.2 | 27.8 | 292 |
| 31 | CC(=O)O[C@@]12CO[C@@H]1C[C@H](O)[C@@]1(C)C(=O)[C@H](O)C3=C(C)[C@@H](OC(=O)[C@H](O)[C@@H](NC(=O)OC(C)(C)C)c4ccccc4)C[C@@](O)([C@@H](OC(=O)c4ccccc4)[C@H]21)C3(C)C at 0.5 nM | 142 | 108 | 167 | 136 | 332 | 368 | 202 | 257 |
| 32 | CC(C)CCN1c2nc(Nc3cc(F)c(O)c(F)c3)ncc2N(C)C(=O)C1C (stereo not drawn) at 1000 nM | 73.4 | 63.9 | 286 | 124 | 640 | 546 | 187 | 146 |
| 33 | C[C@@H]1CCN(C(=O)CC#N)C[C@@H]1N(C)c1ncnc2[nH]ccc12 at 5000 nM | 28.8 | 77.4 | 79.4 | 103 | 217 | 374 | 126 | 165 |
| 34 | N#CC[C@H](C1CCCC1)n1cc(-c2ncnc3[nH]ccc23)cn1 at 5000 nM | 94.0 | 107 | 88.9 | 110 | 87.3 | 300 | 274 | 248 |

Some entries from above, unchanged:

| Second drug | COLO 829 | MEL-HO | RVH-421 | WM3619 | WM115 | WM451Lu | WM1716 | SK-MEL-28 |
|---|---|---|---|---|---|---|---|---|
| COc1cc2ncnc(Nc3ccc(Oc4ccccc4)cc3)c2cc1OC at 10000 nM | 127 | 140 | 152 | 125 | 200 | 288 | 162 | 270 |
| CC(=O)O[C@@]12CO[C@@H]1C[C@H](O)[C@@]1(C)C(=O)[C@H](O)C3=C(C)[C@@H](OC(=O)[C@H](O)[C@@H](NC(=O)OC(C)(C)C)c4ccccc4)C[C@@](O)([C@@H](OC(=O)c4ccccc4)[C@H]21)C3(C)C at 0.5 nM | 142 | 108 | 167 | 136 | 332 | 368 | 202 | 257 |
| CC(C)C[C@H](NC(=O)[C@H](Cc1ccccc1)NC(=O)c1cnccn1)B(O)O at 5 nM | 4940 | 110 | 1860 | 3680 | 651 | 770 | 14200 | 695 |

From a melanoma drug combination screen (doi:10.1371/journal.pone.0140310); values rounded.